Tested on: Male ICR mice
Test: Effect on serum total cholesterol: in-feed vs forced oral administration (Table 1)
Format: in vivo
Source text: In contrast, the solubility of Compound-1 in water is as extremely low as about 0.7 g/l; Compounds-1 and -2 are poles apart in terms of solubility in water. […] However, even when both compounds are simply mixed in a mechanical manner into feed in an amount of 0.1% or even when both compounds are given for forced oral administration in the same drug amount calculated from feed intake, there is no reproducibility in their efficacy unlike the case where their acetone solutions are sprayed over feed.

[1] = Spraying of acetone solution over feed

Compound	Serum colour (Forced oral administration)	Serum colour (Mechanical mixing into feed)	Serum colour [1]
COc1c(Cl)c(C)c(C=O)c(O)c1C/C=C(C)/C=C/[C@@]1(C)[C@H](C)CCC(=O)[C@@H]1C [Compound-1, 4-O-methylascochlorin]	tests Serum is not colored.	Serum is not colored.	Serum is vivid yellow.
CC(C=CC1(C)C(C)CCC(=O)C1C)=CCc1c(O)c(C=O)c(C)c(Cl)c1OCC(=O)O (stereo not shown) [Compound-2, 4-O-carboxymethylascochlorin]	–	–	Serum is yellow.

— US7629471B2, “Transcriptional factor, process for producing the same and use thereof” (NRL Pharma, Inc., priority 2003, dated 2009)
